A short description of this assay: qHTS Assay to Find Inhibitors of Chronic Active B-Cell Receptor Signaling. The settings on record: ABC-DLBCL IkBa-CBG/CBR reporter, luminescence ratio (green luciferase fused to IkBa over red control in TMD8 lymphoma cells), 4 h. In short, it runs like this:
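TMD8 human ABC-DLBCL cells with doxycycline-inducible IκBα–green luciferase fusion and unfused red luciferase, in 0.5% FBS medium; compounds up to 46 uM, 4 h at 37C. Green/red luminescence ratio, filter-overlap corrected, fitted to concentration-response curves.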
In general terms: In qHTS, concentration-response curves come from the screen itself.

The mark [1] stands for this setting: measured here: CBR red luminescence, cell number.
[2] abbreviates: measured here: IkBa-CBG green luminescence.

Our source for the AC50 values is PubChem BioAssay AID493014 (National Center for Advancing Translational Sciences (NCATS), 2011).

Structures are written as SMILES. This is one part of the list. Shown are side measurements of this screen, not its main read-out; they come without a call. The list favours compounds with an active or inconclusive main result. Words in brackets tell the shape of the fitted curve; partial curves, single points and poor fits give uncertain potencies.

Consider `COc1ccc(OCC(=O)NCc2ccc3c(c2)CCN3C(=O)c2ccccc2)cc1`, for which, under setting [1], the AC50 (as a rule, the midpoint of the concentration-response curve, whichever way the signal moves) was 11.2 µM [rising, partial curve].
Consider `O=C(CCCNS(=O)(=O)c1ccccc1)NCc1ccco1`, for which the AC50 under setting [1] was 4.61 µM [falling, partial curve, poor fit].
On the same count and under the same terms, the same measure for `O=S(=O)(c1ccc(Br)s1)N1CCCCC1`: 6.51 µM [rising, single point]; for `CCOC(=O)c1c(COc2ccccc2)oc2ccc(O)cc12`: 7.94 µM [rising, partial curve, poor fit]; for `CN(C)CCCN(C(=O)COc1ccccc1)c1nc2ccc(Cl)cc2s1`: 12.6 µM [falling, single point].
Same read-out and setting: the same measure for `CN(CC(=O)Nc1ccc(Br)cc1)Cc1ccccc1`: 3.16 µM [rising, partial curve, poor fit]; for `c1ccc(-c2ccc(-c3nc(-c4ccncc4)no3)cc2)cc1`: 0.562 µM [rising, full curve, poor fit].
On the same count and under the same terms, under `COC(=O)c1ccc(CSc2nncn2C)cc1` stands 35.5 µM [falling, single point]; under `Cc1ccc(C)c(OCC(=O)Nc2cccc(S(=O)(=O)NC3=NCCCCC3)c2)c1`, 10 µM [falling, partial curve, poor fit]; under `Cc1ccc(C(=O)NC(C#N)=C(Cl)Cl)cc1`, 2.82 µM [falling, full curve].
As to `Cc1nc2cc(-c3ccc(Cl)cc3)nn2c(C)c1CCC(=O)NC(C)c1ccc2c(c1)OCCO2` (configuration not stated), the AC50 under setting [1] is 0.184 µM [falling, full curve].
For the compound `O=C(c1cc2c(ccc3ccccc32)o1)N1CCCCC1`, under setting [1], the AC50 was 11.2 µM [falling, single point].
Same read-out and setting: under `Cn1cccc1/C=N/NC(=O)c1ccccn1` stands 20 µM [falling, single point]; under `Cc1nn(C)c(C)c1NC(=O)CSc1nc(-c2ccccc2Cl)nc2c1cnn2-c1ccccc1`, 18.4 µM [falling, single point]; under `O=C(/C=C/c1ccccc1)N1CCC(c2ccccc2)C1` (configuration not stated), 5.17 µM [falling, partial curve].
`Cc1ccc(NC(=O)CSc2nnnn2-c2ccc3c(c2)OCO3)cc1C`: the AC50 under setting [1] was 3.26 µM [rising, single point].
Still for that read-out and setting: the same measure for `COc1ccc(/C=C2\Sc3ccc(C(=O)NCc4cccnc4)cc3N(C)C2=O)cc1OC`: 35.5 µM [falling, partial curve, poor fit].
On the same count and under the same terms, under `N#Cc1ccc(/C=N/N=C(N)N)cc1` stands 0.164 µM [falling, full curve, poor fit].
On the same count and under the same terms, the same measure for `COc1ccc(S(=O)(=O)N2CCCCCC2)cc1C(=O)N(C)CC(=O)Nc1ccc(F)cc1`: 0.0366 µM [rising, full curve, poor fit]; for `CCOC(=O)Cc1csc(NC(=O)c2cccc(OC)c2)n1`: 2.91 µM [falling, partial curve].
Turning to `CSc1ccccc1OCc1cc(C(=O)NCc2ccc(C)s2)no1`, the AC50 under setting [1] is 17.8 µM [falling, single point].
The same measure, in the same setting: the same measure for `N#Cc1c(/N=C/c2ccc(Br)s2)sc2c1CCC2`: 25.9 µM [rising, partial curve, poor fit].
`Cc1ccc(CNC(=O)CC2(CC3=NS(=O)(=O)c4ccccc4N3)CCCC2)cc1`: the AC50 under setting [1] was 1.78 µM [falling, full curve, poor fit].
Still for that read-out and setting: the same measure for `COc1ccccc1C/C(N)=N/OC(=O)c1cccc([N+](=O)[O-])c1`: 10.3 µM [rising, partial curve, poor fit].
Consider `CCc1noc(C)c1C(=O)Nc1nc(-c2cc(OC)ccc2OC)cs1`, for which the AC50 under setting [1] is 0.58 µM [rising, full curve, poor fit].
Turning to `Cc1cccc(NC(=S)NC(=O)CC2CC(C)(C)OC2=O)c1` (configuration not stated), the AC50 under setting [1] is 11.2 µM [falling, single point].
Still for that read-out and setting: under `O=C(CCNC(=O)c1ccccc1Cl)Nc1nc2ccc(F)cc2s1` stands 18.4 µM [falling, single point]; under `S=c1[nH]nc(C2CCCCC2)n1/N=C/c1ccccc1Cl`, 25.1 µM [rising, single point].
The same measure, in the same setting: the same measure for `Cc1ccc(C(=O)c2cc([N+](=O)[O-])ccc2N2CC(C)OC(C)C2)cc1` (configuration not stated): 2.91 µM [falling, single point]; for `Nc1nc(-c2c[nH]c3ccccc23)cs1`: 3.26 µM [falling, full curve]; for `CN(Cc1ccccc1)C(=S)NC(=O)c1ccc(-c2ccccc2)cc1`: 4.61 µM [rising, full curve, poor fit].
Still for that read-out and setting: the same measure for `COc1cc(C2C(C#N)=C(N)N(Nc3ccccc3)C3=C2C(=O)CC(C)(C)C3)ccc1OCc1ccccc1` (configuration not stated): 4.47 µM [falling, full curve]; for `COc1ccc(Br)cc1C(=O)Nc1ccccc1-c1ccccc1`: 15.8 µM [rising, single point]; for `COc1ccc(N2CC(C(=O)Nc3ccccc3C(=O)NC3CC3)CC2=O)cc1` (configuration not stated): 15.8 µM [rising, single point].
As to `CCc1ccc(C(=O)N/N=C/c2ccc(Cl)cc2Cl)nc1`, under setting [1], the AC50 is 2.06 µM [rising, partial curve, poor fit].
In the case of `O=C(c1ccc(N2CCOCC2)cc1)c1cccs1`, the AC50 under setting [1] is 16.4 µM [falling, partial curve].
The same measure, in the same setting: the same measure for `CC(C)CNS(=O)(=O)c1ccc(CCC(=O)N2CCN(Cc3ccc4c(c3)OCO4)CC2)cc1`: 32.6 µM [falling, single point]; for `O=C(Nc1ccc(-c2noc(COc3ccccc3Cl)n2)cc1)c1ccco1`: 29.1 µM [rising, single point].
For the compound `CC(/C=N/Nc1ncc(C)c(=O)[nH]1)=C\c1ccccc1`, the AC50 under setting [1] is 10 µM [falling, partial curve].
The same measure, in the same setting: the same measure for `CCc1nnc(NC(=O)c2nc(S(=O)(=O)Cc3ccc(C)cc3)ncc2Cl)s1`: 35.5 µM [falling, partial curve, poor fit].
Take `Cn1nnnc1SCC(=O)Nc1ncc(C(F)(F)F)cc1Cl`: the AC50 under setting [1] is 3.26 µM [rising, full curve, poor fit].
Still for that read-out and setting: the same measure for `C=CCc1cccc2cc(C(=O)NC3CCCC3)c(=O)oc12`: 12.6 µM [falling, partial curve, poor fit]; for `O=C(NCc1ccccc1)c1ccc(-c2ccc(F)cc2)o1`: 29.1 µM [falling, single point]; for `Cc1ccccc1CC1(CO)CCCN(Cc2ccccc2Cl)C1` (configuration not stated): 2.82 µM [rising, partial curve, poor fit].
Regarding `COCC(=O)n1nc(-c2ccccc2)nc1NCc1cccs1`, the AC50 under setting [1] was 12.6 µM [falling, single point].
Still for that read-out and setting: under `O=C(CS(=O)(=O)c1ccccc1)N1CCCCCC1` stands 11.6 µM [rising, partial curve, poor fit].
As to `Cc1ccc(S(=O)(=O)c2c(COC(=O)c3cccc(Cl)c3)c(-c3ccccc3)nn2C)cc1`, the AC50 under setting [1] is 6.51 µM [rising, single point].
Consider `Clc1cccc(/C=N/Nc2ncnc3ccccc23)c1`, for which the AC50 under setting [1] was 5.62 µM [falling, partial curve, poor fit].
Same read-out and setting: the same measure for `CCSc1nc(-c2ccccc2)c(-c2ccccc2)n1CC(O)CO` (configuration not stated): 10 µM [falling, partial curve]; for `O=c1ccc2cc(S(=O)(=O)N3CCOCC3)ccc2o1`: 1.64 µM [falling, partial curve, poor fit].
Still for that read-out and setting: the same measure for `N#Cc1cc(C(=O)Cc2ccccc2)c[nH]1`: 7.08 µM [rising, partial curve, poor fit].
On the same count and under the same terms, under `O=C(O)c1ccccc1NC(=O)N1CCOCC1` stands 22.4 µM [falling, single point]; under `O=C1COc2ccc(C(=O)COC(=O)c3ccccc3F)cc2N1`, 25.9 µM [falling, partial curve, poor fit]; under `CCc1cc2c(=O)c(-c3nc(C)cs3)coc2cc1OC(C)C(=O)NCCO` (configuration not stated), 0.316 µM [falling, full curve, poor fit].
As for `O=C(c1ccoc1)N1CCC2(CC1)Oc1ccc(F)cc1C(=O)C21CC(c2ccccc2)=NO1` (configuration not stated), the AC50 under setting [1] was 35.5 µM [falling, single point].
As for `COc1ccc(CCNC(=O)COC(=O)c2cc(S(=O)(=O)N3CCOCC3)ccc2C)cc1OC`, the AC50 under setting [1] was 20.6 µM [rising, single point] and the AC50 under setting [2] is 10.3 µM [falling, partial curve, poor fit].
Turning to `CCCCCCN(C(=O)CCCCCN1C(=O)NC(c2ccc(-c3ccccc3)cc2)C(C(=O)OCc2ccccc2)=C1C)C(C(=O)NCCCC)C1CCCCC1` (configuration not stated), the AC50 under setting [1] was 35.5 µM [rising, single point].
The same measure, in the same setting: under `CC(C(=O)NC1CCS(=O)(=O)C1)N1C(=O)/C(=C/c2ccc(Cl)cc2)SC1=S` (configuration not stated) stands 35.5 µM [falling, single point].
On the same count and under the same terms, under `N#Cc1c(F)cccc1NCc1cccs1` stands 5.62 µM [rising, single point]; under `O=C(Nn1c(O)c(C=C2N=c3ccccc3=N2)sc1=S)c1ccc(Cl)cc1`, 3.66 µM [falling, full curve].
Same read-out and setting: under `N#CCCN/N=C(/Cc1nc2ccccc2[nH]1)c1ccc(Cl)cc1` stands 29.1 µM [falling, single point]; under `CN1CCN(CC#CCn2c3ccccc3c3ccccc32)CC1`, 4.61 µM [rising, single point]; under `Cc1c(OCC(=O)NCC2CCC(C(=O)O)CC2)ccc2c(-c3ccccc3)cc(=O)oc12` (configuration not stated), 20 µM [rising, single point].
With `COc1ccc(CNC(=O)CNC(=O)c2ccc(C(C)(C)C)cc2)cc1OC`, the AC50 is 11.2 µM [rising, partial curve] under setting [1] and 11.2 µM [falling, partial curve, poor fit] under setting [2].
Take `O=C(CCNC(=O)c1ccc(Br)cc1)Nc1ccc(S(=O)(=O)N2CCCCC2)cc1`: under setting [1], the half-maximal activity concentration (AC50) is 4.11 µM [falling, partial curve, poor fit].
